This passage reports binding results from paper PMC11757107.

Sequences of proteins named here, by UniProt entry; tags and fusion partners are left off. Residues count along the entry.
UniProt P24593, residues 21-272: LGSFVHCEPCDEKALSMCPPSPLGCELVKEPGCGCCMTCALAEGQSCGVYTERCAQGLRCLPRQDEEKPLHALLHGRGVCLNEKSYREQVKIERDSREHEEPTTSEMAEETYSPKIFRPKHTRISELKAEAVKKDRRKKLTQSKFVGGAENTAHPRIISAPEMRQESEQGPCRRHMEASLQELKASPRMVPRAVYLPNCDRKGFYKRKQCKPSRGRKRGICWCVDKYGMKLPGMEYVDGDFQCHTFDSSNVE
UniProt P07355: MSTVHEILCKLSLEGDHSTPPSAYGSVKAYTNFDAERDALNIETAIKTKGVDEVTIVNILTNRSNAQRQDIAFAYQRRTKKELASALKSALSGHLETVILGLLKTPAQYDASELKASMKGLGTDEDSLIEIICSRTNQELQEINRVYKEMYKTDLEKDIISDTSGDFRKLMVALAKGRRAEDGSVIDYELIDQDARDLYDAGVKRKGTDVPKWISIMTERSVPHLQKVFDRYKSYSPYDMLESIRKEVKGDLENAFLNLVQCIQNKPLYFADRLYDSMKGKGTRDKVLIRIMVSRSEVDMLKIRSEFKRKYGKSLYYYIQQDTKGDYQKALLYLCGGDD

Results are given in words; binding and its absence hold for the method and conditions named. In cells and extracts the contact can be indirect. These calls come from enrichment with a bait or labelling near it, and not all partners need be listed.

The target in this assay is IGFBP5 (human (endogenous in THP-1)) (UniProt P24593). The assay can be described thus: affinity purification with mass spectrometry; IGFBP5-IP from THP-1 lysate (NP-40 buffer, protein A/G magnetic beads, 5 washes); gel bands differing from the control IP excised and read by LC-MS; proteins exclusively detected in the IGFBP5-IP sample.

ANXA2 (from UniProt P07355 1-339): the binding entry is given as “binds”.
